This passage reports binding results from paper doi:10.1101/2022.07.05.498918.

Chains of the proteins cited; added tags and fusions are not shown.
UniProt P10415: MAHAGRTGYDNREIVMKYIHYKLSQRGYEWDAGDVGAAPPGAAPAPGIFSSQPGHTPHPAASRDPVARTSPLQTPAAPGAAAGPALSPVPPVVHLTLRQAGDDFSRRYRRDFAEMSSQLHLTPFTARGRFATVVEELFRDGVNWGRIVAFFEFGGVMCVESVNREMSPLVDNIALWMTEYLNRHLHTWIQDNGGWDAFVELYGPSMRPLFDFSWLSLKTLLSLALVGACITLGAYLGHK
UniProt Q6ZNE5: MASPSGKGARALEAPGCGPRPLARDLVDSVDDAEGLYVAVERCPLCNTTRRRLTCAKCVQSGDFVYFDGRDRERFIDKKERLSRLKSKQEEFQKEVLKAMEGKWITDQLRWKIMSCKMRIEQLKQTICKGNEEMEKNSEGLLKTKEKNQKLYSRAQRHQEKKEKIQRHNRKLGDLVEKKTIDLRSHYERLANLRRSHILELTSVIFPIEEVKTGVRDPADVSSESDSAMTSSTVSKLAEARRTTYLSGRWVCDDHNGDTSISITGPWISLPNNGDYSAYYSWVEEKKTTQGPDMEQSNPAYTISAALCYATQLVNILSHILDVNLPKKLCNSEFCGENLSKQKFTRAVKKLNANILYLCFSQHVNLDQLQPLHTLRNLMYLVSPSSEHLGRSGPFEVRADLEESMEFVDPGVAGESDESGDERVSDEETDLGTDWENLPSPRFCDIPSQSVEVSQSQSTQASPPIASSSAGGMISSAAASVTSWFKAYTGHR
UniProt Q9C0C7: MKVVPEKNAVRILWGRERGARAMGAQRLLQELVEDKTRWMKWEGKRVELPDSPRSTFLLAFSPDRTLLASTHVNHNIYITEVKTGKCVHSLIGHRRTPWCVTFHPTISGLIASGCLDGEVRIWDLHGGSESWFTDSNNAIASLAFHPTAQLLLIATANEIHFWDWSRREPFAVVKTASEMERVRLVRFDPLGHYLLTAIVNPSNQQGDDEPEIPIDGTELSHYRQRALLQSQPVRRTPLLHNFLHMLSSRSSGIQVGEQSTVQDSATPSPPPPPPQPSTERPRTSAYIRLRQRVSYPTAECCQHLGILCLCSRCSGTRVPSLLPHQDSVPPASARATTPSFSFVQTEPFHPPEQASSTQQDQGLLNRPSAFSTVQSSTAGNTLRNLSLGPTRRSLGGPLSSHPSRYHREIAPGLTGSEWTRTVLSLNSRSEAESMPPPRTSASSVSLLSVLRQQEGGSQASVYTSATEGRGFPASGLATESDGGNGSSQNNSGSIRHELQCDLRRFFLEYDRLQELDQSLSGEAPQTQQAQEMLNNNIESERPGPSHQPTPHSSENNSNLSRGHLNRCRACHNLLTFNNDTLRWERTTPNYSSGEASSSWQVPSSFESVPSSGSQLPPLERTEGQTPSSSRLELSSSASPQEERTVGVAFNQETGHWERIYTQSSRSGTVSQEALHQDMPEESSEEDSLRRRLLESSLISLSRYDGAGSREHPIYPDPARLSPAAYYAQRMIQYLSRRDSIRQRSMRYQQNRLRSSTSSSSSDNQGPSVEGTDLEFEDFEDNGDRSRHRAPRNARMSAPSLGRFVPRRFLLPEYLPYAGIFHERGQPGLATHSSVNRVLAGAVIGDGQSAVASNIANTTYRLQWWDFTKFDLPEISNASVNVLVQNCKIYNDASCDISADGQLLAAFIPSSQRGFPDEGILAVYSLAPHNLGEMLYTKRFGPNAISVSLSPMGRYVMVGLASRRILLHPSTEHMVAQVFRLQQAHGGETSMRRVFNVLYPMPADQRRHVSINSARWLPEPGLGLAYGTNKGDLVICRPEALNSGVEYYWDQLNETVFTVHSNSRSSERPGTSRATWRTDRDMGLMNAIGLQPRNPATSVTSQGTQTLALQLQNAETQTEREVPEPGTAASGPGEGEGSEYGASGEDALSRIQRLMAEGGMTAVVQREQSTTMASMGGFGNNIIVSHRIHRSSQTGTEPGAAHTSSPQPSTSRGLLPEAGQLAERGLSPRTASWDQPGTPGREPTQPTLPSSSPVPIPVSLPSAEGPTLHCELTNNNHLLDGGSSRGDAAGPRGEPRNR
UniProt Q14457: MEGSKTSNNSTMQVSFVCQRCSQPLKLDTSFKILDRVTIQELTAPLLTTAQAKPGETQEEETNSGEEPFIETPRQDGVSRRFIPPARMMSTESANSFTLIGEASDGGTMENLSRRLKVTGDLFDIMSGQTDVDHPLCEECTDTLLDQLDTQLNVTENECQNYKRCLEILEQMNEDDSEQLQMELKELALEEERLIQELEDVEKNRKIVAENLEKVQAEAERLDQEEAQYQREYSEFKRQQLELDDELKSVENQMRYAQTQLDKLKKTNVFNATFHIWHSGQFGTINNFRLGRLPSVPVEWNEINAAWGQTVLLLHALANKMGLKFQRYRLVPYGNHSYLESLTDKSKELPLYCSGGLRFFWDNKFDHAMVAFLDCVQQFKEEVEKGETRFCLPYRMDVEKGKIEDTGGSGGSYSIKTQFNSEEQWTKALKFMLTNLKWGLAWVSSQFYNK
UniProt Q86WV6: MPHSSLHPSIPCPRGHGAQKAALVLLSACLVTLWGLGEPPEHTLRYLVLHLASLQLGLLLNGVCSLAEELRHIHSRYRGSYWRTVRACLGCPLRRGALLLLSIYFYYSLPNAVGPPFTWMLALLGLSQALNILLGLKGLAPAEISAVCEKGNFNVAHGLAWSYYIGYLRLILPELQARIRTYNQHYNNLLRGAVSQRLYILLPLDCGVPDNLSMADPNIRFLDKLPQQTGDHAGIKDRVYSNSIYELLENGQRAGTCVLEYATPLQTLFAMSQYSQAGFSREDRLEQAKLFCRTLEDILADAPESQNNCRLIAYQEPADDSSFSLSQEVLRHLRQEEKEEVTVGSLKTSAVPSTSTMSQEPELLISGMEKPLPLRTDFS
UniProt Q8N884: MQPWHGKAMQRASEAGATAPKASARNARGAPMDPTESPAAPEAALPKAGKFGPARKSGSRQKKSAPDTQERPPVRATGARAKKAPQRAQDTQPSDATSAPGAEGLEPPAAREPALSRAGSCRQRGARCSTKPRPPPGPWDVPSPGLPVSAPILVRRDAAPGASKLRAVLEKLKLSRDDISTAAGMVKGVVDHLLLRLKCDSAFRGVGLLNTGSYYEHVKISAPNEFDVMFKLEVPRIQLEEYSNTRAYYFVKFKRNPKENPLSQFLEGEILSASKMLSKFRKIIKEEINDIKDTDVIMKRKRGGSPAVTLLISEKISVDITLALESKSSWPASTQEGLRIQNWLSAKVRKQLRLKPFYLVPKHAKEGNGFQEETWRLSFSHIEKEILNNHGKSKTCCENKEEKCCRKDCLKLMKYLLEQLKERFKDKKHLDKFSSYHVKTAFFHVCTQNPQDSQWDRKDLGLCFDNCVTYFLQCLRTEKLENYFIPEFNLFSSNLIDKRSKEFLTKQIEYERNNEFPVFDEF

Read-outs that look alike come from different tables or passages of the source. These are yes or no findings as the source states them, for the method shown. In cells and extracts the contact can be indirect. Some binding calls cover weakened binding; strength is not graded here. For part of these data: Sequences can lack the tags named with a protein.

Common to all, as to assay: co-IP
Assay [1] addresses Flag-Bcl2 (UniProt P10415).
Assay [2] concerns the target Flag-ATG14L (UniProt Q6ZNE5).
The target in assay [3] is Flag-Ambra1 (UniProt Q9C0C7).
In assay [4] the target is Flag-Bcl2 (UniProt P10415). This is another data set of the same source.
Assay [5] concerns the target Flag-Beclin-1 (UniProt Q14457).
Assay [6] addresses Flag-STING (UniProt Q86WV6).

HA-STING (from UniProt Q86WV6 1-379): the binding result in assay [1], in assay [2], in assay [3], in assay [4] and in assay [5] was “binds” throughout.

Myc-cGAS (from UniProt Q8N884 1-522): the binding result in assay [1] and in assay [4] was “binds” throughout.

B1: HA-USP19 (enzyme, UniProt O94966 1-1318)
chain: MSGGASATGPRRGPPGLEDTTSKKKQKDRANQESKDGDPRKETGSRYVAQAGLEPLASGDPSASASHAAGITGSRHRTRLFFPSSSGSASTPQEEQTKEGACEDPHDLLATPTPELLLDWRQSAEEVIVKLRVGVGPLQLEDVDAAFTDTDCVVRFAGGQQWGGVFYAEIKSSCAKVQTRKGSLLHLTLPKKVPMLTWPSLLVEADEQLCIPPLNSQTCLLGSEENLAPLAGEKAVPPGNDPVSPAMVRSRNPGKDDCAKEEMAVAADAATLVDEPESMVNLAFVKNDSYEKGPDSVVVHVYVKEICRDTSRVLFREQDFTLIFQTRDGNFLRLHPGCGPHTTFRWQVKLRNLIEPEQCTFCFTASRIDICLRKRQSQRWGGLEAPAARVGGAKVAVPTGPTPLDSTPPGGAPHPLTGQEEARAVEKDKSKARSEDTGLDSVATRTPMEHVTPKPETHLASPKPTCMVPPMPHSPVSGDSVEEEEEEEKKVCLPGFTGLVNLGNTCFMNSVIQSLSNTRELRDFFHDRSFEAEINYNNPLGTGGRLAIGFAVLLRALWKGTHHAFQPSKLKAIVASKASQFTGYAQHDAQEFMAFLLDGLHEDLNRIQNKPYTETVDSDGRPDEVVAEEAWQRHKMRNDSFIVDLFQGQYKSKLVCPVCAKVSITFDPFLYLPVPLPQKQKVLPVFYFAREPHSKPIKFLVSVSKENSTASEVLDSLSQSVHVKPENLRLAEVIKNRFHRVFLPSHSLDTVSPSDTLLCFELLSSELAKERVVVLEVQQRPQVPSVPISKCAACQRKQQSEDEKLKRCTRCYRVGYCNQLCQKTHWPDHKGLCRPENIGYPFLVSVPASRLTYARLAQLLEGYARYSVSVFQPPFQPGRMALESQSPGCTTLLSTGSLEAGDSERDPIQPPELQLVTPMAEGDTGLPRVWAAPDRGPVPSTSGISSEMLASGPIEVGSLPAGERVSRPEAAVPGYQHPSEAMNAHTPQFFIYKIDSSNREQRLEDKGDTPLELGDDCSLALVWRNNERLQEFVLVASKELECAEDPGSAGEAARAGHFTLDQCLNLFTRPEVLAPEEAWYCPQCKQHREASKQLLLWRLPNVLIVQLKRFSFRSFIWRDKINDLVEFPVRNLDLSKFCIGQKEEQLPSYDLYAVINHYGGMIGGHYTACARLPNDRSSQRSDVGWRLFDDSTVTTVDESQVVTRYAYVLFYRRRNSPVERPPRAGHSEHHPDLGPAAEAAASQASRIWQELEAEEEPVPEGSGPLGPWGPQDWVGPLPRGPTTPDEGCLRYFVLGTVAALVALVLNVFYPLVSQSRWR
Turning to B1, the binding entry in assay [6] is given as “binds”.

B2: HA-ATG9a (protein, UniProt Q7Z3C6 1-839)
chain: MAQFDTEYQRLEASYSDSPPGEEDLLVHVAEGSKSPWHHIENLDLFFSRVYNLHQKNGFTCMLIGEIFELMQFLFVVAFTTFLVSCVDYDILFANKMVNHSLHPTEPVKVTLPDAFLPAQVCSARIQENGSLITILVIAGVFWIHRLIKFIYNICCYWEIHSFYLHALRIPMSALPYCTWQEVQARIVQTQKEHQICIHKRELTELDIYHRILRFQNYMVALVNKSLLPLRFRLPGLGEAVFFTRGLKYNFELILFWGPGSLFLNEWSLKAEYKRGGQRLELAQRLSNRILWIGIANFLLCPLILIWQILYAFFSYAEVLKREPGALGARCWSLYGRCYLRHFNELEHELQSRLNRGYKPASKYMNCFLSPLLTLLAKNGAFFAGSILAVLIALTIYDEDVLAVEHVLTTVTLLGVTVTVCRSFIPDQHMVFCPEQLLRVILAHIHYMPDHWQGNAHRSQTRDEFAQLFQYKAVFILEELLSPIVTPLILIFCLRPRALEIIDFFRNFTVEVVGVGDTCSFAQMDVRQHGHPQWLSAGQTEASVYQQAEDGKTELSLMHFAITNPGWQPPRESTAFLGFLKEQVQRDGAAASLAQGGLLPENALFTSIQSLQSESEPLSLIANVVAGSSCRGPPLPRDLQGSRHRAEVASALRSFSPLQPGQAPTGRAHSTMTGSGVDARTASSGSSVWEGQLQSLVLSEYASTEMSLHALYMHQLHKQQAQAEPERHVWHRRESDESGESAPDEGGEGARAPQSIPRSASYPCAAPRPGAPETTALHGGFQRRYGGITDPGTVPRVPSHFSRLPLGGWAEDGQSASRHPEPVPEEGSEDELPPQVHKV
Turning to B2, the binding result in assay [6] was “binds”.
